{"source": "patent US7368428B2", "about": "“Compositions and methods for restoring sensitivity of tumor cells to antitumor therapy and inducing apoptosis” (A&G Pharmaceutical, Inc., priority 2003, dated 2008)", "tested_on": "MCF-7 breast carcinoma cells", "assay": "PARP cleavage Western blot (apoptosis) in MCF-7 cells", "assay_type": "cell-based", "conditions": "agent added together with tamoxifen, FIG. 5", "source_text": "Tamoxifen-induced apoptosis is blocked in tumor cells overexpressing GP88. FIG. 5 is a western blot measuring the level of the PARP cleavage product (85 kDa band) in MCF-7 breast carcinoma cells treated with tamoxifen, tamoxifen+GP88, tamoxifen+estradiol, GP88, and a control. […] Tamoxifen-induced apoptosis was blocked by treatment with estradiol, a compound known to block tamoxifen-induced apoptosis, as shown by the decrease in the 85 kDa band in the lane labeled “Tamoxifen+estradiol.” Tamoxifen-induced apoptosis was blocked by treatment with GP88 to the same extent as treatment by estradiol.\nThe present invention also provides methods of inducing apoptosis comprising administering a GP88 antagonist to a tumor cell. […] Apoptosis can be detected in tumor cells by a variety of techniques including, but not limited to for example, detection of Bcl-2 levels or detection of the PARP cleavage product, DNA ladder, and production of apoptotic cells. […]\nMCF-7 cells or O4 cells were seeded at a density of 7×10^5 cells in 60-mm dish in DMEM/F12 supplemented with 5% FBS. […] Intact and cleaved forms of PARP were detected using a mouse monoclonal anti-PARP antibody from Oncogene Research (San Diego, Calif.). α-Actin was used for normalizing the loading.", "note": "At least one structure is not confirmed: it was looked up by name or label, or the drawing left a doubt.", "data": [{"smiles": "C[C@]12CC[C@@H]3c4ccc(O)cc4CC[C@H]3[C@@H]1CC[C@@H]2O", "note": "[estradiol]", "values": [{"measurement": "tamoxifen-induced apoptosis (85 kDa PARP cleavage product)", "value": "blocked"}]}]}
